Experimental data as given in article PMC4068993, “Chlamydia pneumoniae CopD Translocator Protein Plays a Critical Role in Type III Secretion (T3S) and Infection” (PLoS ONE, 2014).
These are yes or no findings as the source states them, for the method shown. Some results given as binding are weak or reduced against the parent protein; the word gives no strength. Tags and fused reporters may be left off the sequences shown.

Molecular target: Full length His-CopD (Chlamydia pneumoniae CWL029) (UniProt Q9Z798)
Test: SEC; His-CopD and LcrH_1-S-tag, size exclusion chromatography in the presence of 0.1% Triton X-100; data not shown; both purified

B1: Full length His-CopD (natural protein)
chain: MTSGVSGSSSQDPTLAAQLAQSSQKAGNAQSGHDTKNVTKQGAQAEVAAGGFEDLIQDASAQSTGKKEATSSTTKSSKGEKSEKSGKSKSSTSVASASETATAQAVQGPKGLRQNNYDSPSLPTPEAQTINGIVLKKGMGTLALLGLVMTLMANAAGESWKASFQSQNQAIRSQVESAPAIGEAIKRQANHQASATEAQAKQSLISGIVNIVGFTVSVGAGIFSAAKGATSALKSASFAKETGASAAGGAASKALTSASSSVQQTMASTAKAATTAASSAGSAATKAAANLTDDMAAAASKMASDGASKASGGLFGEVLNKPNWSEKVSRGMNVVKTQGARVASFAGNALSSSMQMSQLMHGLTAAVEGLSAGQTGIEVAHHQRLAGQAEAQAEVLKQMSSVYGQQAGQAGQLQEQAMQSFNTALQTLQNIADSQTQTTSAIFN
notes: CopD (Cpn0808), Chlamydia pneumoniae CWL029, 444 amino acids (44.5 kDa); Eluted from SEC as decamer, tetramer and monomer; also called Cpn0808; source: E. coli Rosetta pLysS, co-expressed with LcrH_1-S-tag (pET-DUET), purified (Ni-NTA); not shown: 6×His, N-terminal, kept
- binding: binds
